Measurements: patent US20140120106A1, “Stimulation of Arterial Collateral Growth and Lymphogenesis” (YALE UNIVERSITY, priority 2011, published 2014)

System: VE-cadherin-tTA/RAF1S259A double transgenic embryos
Assay: Endothelial-specific RAF1S259A transgenic mice (Noonan syndrome mouse model)
Format: in vivo
Text: Human wild type Raf1 and RAF1S259A plasmids were gifts of Dr. Guri Tzivion (Wayne State University). To generate RAF1S259A transgenic mice, hRAF1S259A was cloned to NotI+PstI sites of pBI-G Tet-off vector (Clontech). TRE-RAF1S259A transgenic mouse line was then generated at the Yale Animal Genomics Services center. VE-cadherin-tT A mice (Sun, et al. Proc Natl Acad Sci USA 102:128-133 (2005)) were from W. Sessa lab (Yale). Time-mating was setup by intercross of male TRE-RAF1 S259A mice with VE-cadherin-tTA female mice. For paraffin and frozen sections, embryos were fixed in 4% paraformaldehyde for overnight at 4° C.
Primary mouse endothelial cells were isolated from E12.5 embryos using a protocol similar to that described by Ren, et al. J Clin Invest 120:1217-1228 (2010). Briefly, E12.5 embryos were harvested, minced finely with scissors, and then digested in 25 ml collagenase 0.2% (w/v) at 37° C. for 20 minutes. The crude cell preparation was pelleted and resuspended in DPBS. The cell suspension was incubated with CD31-coated beads (Invitrogen) at room temperature for 10 minutes with rotation. Using a magnetic separator, the bead-bound cells were recovered, washed with DMEM-20% FBS. The cells were then used for gene expression analysis by qPCR.

Substance: RAF1 S259A: RAF1 Ser259 to Ala259 mutant, not inhibited by AKT; expressed from lentivirus, adenovirus or endothelial transgene
- LEC proliferation (number of Ki67+/PROX1+ cells) (E12.5 or E14.5 embryos versus littermate controls): No significant differences
- diameter of skin lymphatic vessels (E14.5 S259A embryos versus control littermates): twice
- cardinal vein size (lumen area) (S259A embryos by E14.5 versus littermate controls): significantly smaller
- lethality (S259A embryos, by E15.5): ~100%
